PubChem BioAssay AID1671195 | Yale University, 2021

- Test: 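Knockdowns that increase or decrease uptake of fluorescent LDL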 (primary screen)
- Cell system: human Huh7 hepatoma cells
- Reagent: siRNA pool against human genes, 18 nM
- Duration: about 2 to 2.5 days of knockdown, then 8 h LDL uptake
- Conditions: DiI-labelled LDL at 30 µg/ml for 8 h, in lipoprotein-deficient serum medium
- Measured: 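Fluorescent LDL signal imaged in cells, scaled to the plate median, robust z-score for each replicate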
- Scale: robust z-score: higher = more LDL uptake after knockdown
- Hit rule: 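Active when two or more replicates show a robust z-score above 2 or below -2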
Shown is one part, drawn at random, of about 22,000 deposited reagents. About 1,510 of them (6.9%) were called active. 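Active includes knockdowns raising or lowering LDL uptake; positive z-scores mean more uptake, negative mean less.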 A number with no mark means an inactive call.

gene	robust z-score, replicate 1	robust z-score, replicate 2	robust z-score, replicate 3
BTNL2 (butyrophilin like 2)	0.531	-1.01	-0.251
KPNA6 (karyopherin subunit alpha 6)	-1.16	-0.895	0.664
DUS4L (dihydrouridine synthase 4 like)	0.912	0.485	-0.0927
TAS2R1 (taste 2 receptor member 1)	-1.18	-1.37	-0.959
BBS2 (Bardet-Biedl syndrome 2)	-0.171	-0.0489	-0.154
RDH8 (retinol dehydrogenase 8)	0.957	0.73	0.548
ASMTL-AS1 (ASMTL antisense RNA 1)	-1.4	-1.45	-1.27
DNAAF11 (dynein axonemal assembly factor 11)	0.298	-0.152	1.71
LOC440916 (retired record)	0.332	0.284	0.431
ERG (ETS transcription factor ERG)	0.0071	-0.34	1.19
PPIP5K1 (diphosphoinositol pentakisphosphate kinase 1)	-0.551	-0.217	0.322
LINC01554 (long independently transcribed non-coding RNA 1554)	0.0968	0.113	0.163
LZTS2 (leucine zipper tumor suppressor 2)	-1.06	-1.12	-1.11
KDM5D (lysine demethylase 5D)	-0.263	-0.237	-0.318
CDKL2 (cyclin dependent kinase like 2)	-0.635	-0.968	-0.632
NKX3-1 (NK3 homeobox 1)	0.856	0.278	1.17
TREH (trehalase)	0.11	1.22	-0.359
OR4Q3 (olfactory receptor family 4 subfamily Q member 3)	-0.973	-0.797	-0.78
PORCN (porcupine O-acyltransferase)	1.26	1.21	1.06
C11orf96 (chromosome 11 open reading frame 96)	0.425	0.404	0.675
AMOTL1 (angiomotin like 1)	0.777	0.155	0.0582
INA (internexin neuronal intermediate filament protein alpha)	1.33	0.313	1.06
NUPR1 (nuclear protein 1, transcriptional regulator)	-0.718	-0.672	-0.327
MAP1LC3BP1	-0.481	-0.788	-0.313
CEACAM6 (CEA cell adhesion molecule 6)	1.17	0.856	1.15
MTMR12 (myotubularin related protein 12)	1.85	1.73	2.28
EMSY (EMSY transcriptional repressor, BRCA2 interacting)	-2.36	-1.74	-1.5
DVL1 (dishevelled segment polarity protein 1)	0.0896	0.217	0.0114

3 entries from above, reformatted:
gene,"robust z-score, replicate 1","robust z-score, replicate 2","robust z-score, replicate 3"
CDKL2 (cyclin dependent kinase like 2),-0.635,-0.968,-0.632
NKX3-1 (NK3 homeobox 1),0.856,0.278,1.17
TREH (trehalase),0.11,1.22,-0.359

The results go on:
gene	robust z-score, replicate 1	robust z-score, replicate 2	robust z-score, replicate 3
ZNF708 (zinc finger protein 708)	0.656	0.384	0.437
H2AJ (H2A.J histone)	0.218	2.07	-0.904
GLYATL3 (glycine-N-acyltransferase like 3)	0.128	0.565	0.354
RANBP1P1 (RANBP1 pseudogene 1)	-0.521	-0.347	-0.508
PRICKLE2 (prickle planar cell polarity protein 2)	2.68 (active)	2.33	3.12
NXN (nucleoredoxin)	-0.463	-0.926	0.01
RGS13 (regulator of G protein signaling 13)	0.492	0.142	0.09
EIF2AK1 (eukaryotic translation initiation factor 2 alpha kinase 1)	-0.754	-0.326	0.00405
OR6N2 (olfactory receptor family 6 subfamily N member 2)	-1.88	-1.72	-1.63
WASF3 (WASP family member 3)	3.08 (active)	3.38	2.14
BTNL9 (butyrophilin like 9)	5.38 (active)	4.13	3.72
MBNL2 (muscleblind like splicing regulator 2)	-0.557	-0.0181	-0.0666
CLEC19A (C-type lectin domain containing 19A)	-1.34	-0.306	-0.237
ARF5 (ARF GTPase 5)	-1.17	0.85	-0.543
H1-0 (H1.0 linker histone)	0.443	1.2	0.721
DORIP1 (dopamine receptor interacting protein 1)	1.52	1.94	0.538
LOC389665 (retired record)	-1.61	-1.44	-1.34
WNT2B (Wnt family member 2B)	0.211	-0.223	-0.881
